# Assay results taken from patent US20190127441A1.
# No constants are given. Whether binding was seen depends on the method and setting. In cells and extracts the contact can be indirect. Some results given as binding are weak or reduced against the parent protein; the word gives no strength. Tags and fused reporters may be left off the sequences shown.
# B1: soluble recombinant MCFD2 (sMCFD2), 6x His and MYC tagged, purified from HEK293T supernatant (protein)
# chain: EEPAASFSQPGSMGLDKNTVHDQEHIMEHLEGVINKPEAEMSPQELQLHYFKMHDYDGNNLLDGLELSTAITHVHKEEGSEQAPLMSEDELINIIDGVLRDDDKNNDGYIDYAEFAKSLQ
# Target: T1, endogenous ERGIC-53 secreted from JUNV C#1 infected or mock infected HEK cells (Homo sapiens) (UniProt P49257)
# T1 sequence: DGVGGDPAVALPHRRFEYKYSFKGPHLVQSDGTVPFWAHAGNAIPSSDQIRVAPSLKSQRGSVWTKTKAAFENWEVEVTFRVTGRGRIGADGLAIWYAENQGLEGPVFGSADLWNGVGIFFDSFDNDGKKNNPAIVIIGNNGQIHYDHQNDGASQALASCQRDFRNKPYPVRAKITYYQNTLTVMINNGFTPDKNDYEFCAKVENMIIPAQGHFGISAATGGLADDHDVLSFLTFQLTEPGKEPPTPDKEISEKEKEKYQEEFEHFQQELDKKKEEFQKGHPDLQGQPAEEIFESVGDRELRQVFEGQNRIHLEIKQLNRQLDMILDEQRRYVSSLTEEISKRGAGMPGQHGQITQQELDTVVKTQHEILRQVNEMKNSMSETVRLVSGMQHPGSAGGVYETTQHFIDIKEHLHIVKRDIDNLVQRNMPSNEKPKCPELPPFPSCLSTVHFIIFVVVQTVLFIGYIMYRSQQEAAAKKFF
# Assay: co-immunoprecipitation from culture supernatant, Western blot
binder,measurement,value
B1,binding,binds
